Results reported in patent US5120750A, “Generation of 1,4-dihydropyridine derivatives” (priority 1990, dated 1992).
For at least one compound, name, drawing or mass did not settle the structure.

Assays:
[1] = In-vivo (P.O.) anti-inflammatory activity; settings: general pharmacological screening
angiotensin = test: In-vitro angiotensin inhibitory activity; assay type: biochemical; settings: 0.1 μg/ml

## COC(=O)C1=C(C)NC(C)=C(C(=O)OCCCCCCCc2nc(C)cs2)C1c1cccc(C(F)(F)F)c1 (centres unmarked) [Example 13, 3-[7-(4-Methylthiazol-2-yl)heptyloxycarbonyl]-5-methoxycarbonyl-2,6-dimethyl-4-(3-trifluoromethylphenyl)-1,4-dihydropyridine]
[1]
  anti-inflammatory activity (in words): very strong
angiotensin
  Percent Inhibition (angiotensin inhibitory activity): 80%
